No constants are given. Whether binding was seen depends on the method and setting. Binding seen in cells or lysates may run through a third protein. These calls come from enrichment with a bait or labelling near it, and not all partners need be listed. For part of these data: A no says only that the protein was not detected with the bait. For part of these data: Sequences can lack the tags named with a protein.
Experiments:
[1] = target: T1, FLAG-2xStrep-PNO1 (UniProt Q9NRX1 1-252); assay: affinity purification with mass spectrometry
T1 construct: also called PNO1 bait protein

The chains behind the UniProt entries cited, without tags or fusion partners.
UniProt Q9NRX1: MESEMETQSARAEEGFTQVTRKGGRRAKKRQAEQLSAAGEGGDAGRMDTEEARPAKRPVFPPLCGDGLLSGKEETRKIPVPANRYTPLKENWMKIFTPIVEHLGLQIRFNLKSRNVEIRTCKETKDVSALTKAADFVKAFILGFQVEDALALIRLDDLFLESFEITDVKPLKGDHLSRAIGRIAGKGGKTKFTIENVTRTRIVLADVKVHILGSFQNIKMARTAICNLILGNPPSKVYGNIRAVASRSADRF

[2] = target: T2, FLAG-2xStrep-tagged TSR1 (UniProt Q2NL82); assay: affinity purification with mass spectrometry
T2 sequence: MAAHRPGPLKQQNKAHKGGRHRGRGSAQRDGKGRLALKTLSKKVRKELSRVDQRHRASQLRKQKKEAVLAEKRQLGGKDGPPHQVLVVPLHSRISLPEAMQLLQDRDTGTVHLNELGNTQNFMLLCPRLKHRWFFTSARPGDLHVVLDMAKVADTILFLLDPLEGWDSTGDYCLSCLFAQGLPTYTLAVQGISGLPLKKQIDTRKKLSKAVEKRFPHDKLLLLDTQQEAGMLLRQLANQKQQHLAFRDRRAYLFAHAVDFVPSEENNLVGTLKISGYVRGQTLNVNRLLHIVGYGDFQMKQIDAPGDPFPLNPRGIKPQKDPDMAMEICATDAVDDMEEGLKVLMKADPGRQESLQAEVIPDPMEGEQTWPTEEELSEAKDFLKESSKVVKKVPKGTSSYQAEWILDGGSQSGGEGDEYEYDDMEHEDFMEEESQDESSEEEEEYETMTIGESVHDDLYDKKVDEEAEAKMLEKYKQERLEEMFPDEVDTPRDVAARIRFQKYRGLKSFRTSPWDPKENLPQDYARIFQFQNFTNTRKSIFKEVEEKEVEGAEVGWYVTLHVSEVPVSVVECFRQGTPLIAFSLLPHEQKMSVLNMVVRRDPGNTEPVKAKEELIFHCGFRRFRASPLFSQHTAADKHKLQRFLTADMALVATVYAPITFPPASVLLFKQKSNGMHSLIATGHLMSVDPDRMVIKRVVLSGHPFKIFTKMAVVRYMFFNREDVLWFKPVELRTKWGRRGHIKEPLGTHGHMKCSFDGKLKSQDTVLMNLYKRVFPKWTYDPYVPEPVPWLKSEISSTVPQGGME

B1: BUD23 (natural protein, human (endogenous in TREx BCBL1-Rta), UniProt O43709 1-281, looked up)
chain: MASRGRRPEHGGPPELFYDETEARKYVRNSRMIDIQTRMAGRALELLYLPENKPCYLLDIGCGTGLSGSYLSDEGHYWVGLDISPAMLDEAVDREIEGDLLLGDMGQGIPFKPGTFDGCISISAVQWLCNANKKSENPAKRLYCFFASLFSVLVRGSRAVLQLYPENSEQLELITTQATKAGFSGGMVVDYPNSAKAKKFYLCLFSGPSTFIPEGLSENQDEVEPRESVFTNERFPLRMSRRGMVRKSRAWVLEKKERHRRQGREVRPDTQYTGRKRKPRF
In the case of B1, the binding [1] is reported as “binds”.

B2: NOC4L (natural protein, human (endogenous in TREx BCBL1-Rta), UniProt Q9BVI4 1-516, looked up)
chain: MEREPGAAGVRRALGRRLEAVLASRSEANAVFDILAVLQSEDQEEIQEAVRTCSRLFGALLERGELFVGQLPSEEMVMTGSQGATRKYKVWMRHRYHSCCNRLGELLGHPSFQVKELALSALLKFVQLEGAHPLEKSKWEGNYLFPRELFKLVVGGLLSPEEDQSLLLSQFREYLDYDDTRYHTMQAAVDAVARVTGQHPEVPPAFWNNAFTLLSAVSLPRREPTVSSFYVKRAELWDTWKVAHLKEHRRVFQAMWLSFLKHKLPLSLYKKVLLIVHDAILPQLAQPTLMIDFLTRACDLGGALSLLALNGLFILIHKHNLEYPDFYRKLYGLLDPSVFHVKYRARFFHLADLFLSSSHLPAYLVAAFAKRLARLALTAPPEALLMVLPFICNLLRRHPACRVLVHRPHGPELDADPYDPGEEDPAQSRALESSLWELQALQRHYHPEVSKAASVINQALSMPEVSIAPLLELTAYEIFERDLKKKGPEPVPLEFIPAQGLLGRPGELCAQHFTLS
With B2 the binding [1] was “binds”.

B3: KSHV ORF11 protein (protein, UniProt Q2HRC8 1-407)
chain: MAQESEQCSRAFAVCSSKRQLGRGEPVWDSVIHPSHIVISNRVPLLLREQNICLPSCPSVGQILHRAYPNFTFDNTHRKQQTETYTAFYAFGDQNNKVRILPTVVESSSSVLIFRLRASVSANIAVGGLKIIILALTLVHAQGVYLRCGKDLSTPHCAPAIVQREVLSSGFEPQFTVTGIPVTSSNLNQCYFLVRKPKSRLAKPFARLSAETTEECRVRSIRLGKTHLRISVTAPAQETPVWGLVTTSFSLTPTAPLAFDRNPYNHETFACNARHYIPVIYSGPKITLAPRGRQVVWHNNSYTSSLPCKVTAIVSNHCCNCDIFLEDSEWRPNKPAPLKLVNTSDHPVILEPDTHIGNALFIIAPKARGLRRLTRLTTKTIELPGGVKIDSRKLQTFRKMYVATGRS
In the case of B3, the binding [2] is reported as “no binding”.

From publication PMC9849454, “Kaposi’s sarcoma-associated herpesvirus induces specialised ribosomes to efficiently translate viral lytic mRNAs” (Nature Communications, 2023)
